Source: the supplement of paper PMC8728848
This is one part of the list.

Key:
Assay in all cases: glycan array binding signal (z-score within array); higher = stronger binding
Conditions in all cases: glycan notation: IUPAC condensed, linker removed
[1] = target: Gal(b1-4)Glc
How it was run: (§1)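 Glycan array binding is given as a within-array Z-score, which can be read as non-binding when negative. The arrays, 3228 of them, came from the Consortium for Functional Glycomics database and were retained only where the protein sequence was available. Z-scores were averaged across arrays of the same protein sequence at different concentrations or buffers and across linkers.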

[2] = target: Gal(b1-4)Glc6S
How it was run: as §1

[3] = target: Gal(b1-4)GlcNAc
How it was run: as §1

[4] = target: Gal(b1-4)GlcNAc(a1-6)Gal(b1-4)GlcNAc
How it was run: as §1

[5] = target: Gal(b1-4)GlcNAc(b1-2)Man
How it was run: as §1

[6] = target: Gal(b1-4)GlcNAc(b1-2)Man(a1-3)Man(b1-4)GlcNAc(b1-4)GlcNAc
How it was run: as §1

[7] = target: Gal(b1-4)GlcNAc(b1-2)Man(a1-3)[Gal(b1-4)GlcNAc(b1-2)Man(a1-6)]Man(b1-4)GlcNAc(b1-4)GlcNAc
How it was run: as §1

[8] = target: Gal(b1-4)GlcNAc(b1-2)Man(a1-3)[Gal(b1-4)GlcNAc(b1-2)Man(a1-6)]Man(b1-4)GlcNAc(b1-4)[Fuc(a1-6)]GlcNAc
How it was run: as §1

[9] = target: Gal(b1-4)GlcNAc(b1-2)Man(a1-3)[Gal(b1-4)GlcNAc(b1-2)Man(a1-6)][Gal(b1-4)GlcNAc(b1-4)]Man(b1-4)GlcNAc(b1-4)[Fuc(a1-6)]GlcNAc
How it was run: as §1

[10] = target: Gal(b1-4)GlcNAc(b1-2)Man(a1-3)[Gal(b1-4)GlcNAc(b1-2)Man(a1-6)][GlcNAc(b1-4)]Man(b1-4)GlcNAc(b1-4)[Fuc(a1-6)]GlcNAc
How it was run: as §1

[11] = target: Gal(b1-4)GlcNAc(b1-2)Man(a1-3)[GlcNAc(b1-2)Man(a1-6)]Man(b1-4)GlcNAc(b1-4)GlcNAc
How it was run: as §1

[12] = target: Gal(b1-4)GlcNAc(b1-2)Man(a1-3)[GlcNAc(b1-4)][Gal(b1-4)GlcNAc(b1-2)Man(a1-6)]Man(b1-4)GlcNAc(b1-4)GlcNAc
How it was run: as §1

[13] = target: Gal(b1-4)GlcNAc(b1-2)Man(a1-3)[Man(a1-6)]Man(b1-4)GlcNAc(b1-4)GlcNAc
How it was run: as §1

[14] = target: Gal(b1-4)GlcNAc(b1-2)Man(a1-6)Man(b1-4)GlcNAc(b1-4)GlcNAc
How it was run: as §1

[15] = target: Gal(b1-4)GlcNAc(b1-2)Man(a1-6)[GlcNAc(b1-2)Man(a1-3)]Man(b1-4)GlcNAc(b1-4)GlcNAc
How it was run: as §1

[16] = target: Gal(b1-4)GlcNAc(b1-2)Man(a1-6)[Man(a1-3)]Man(b1-4)GlcNAc(b1-4)GlcNAc
How it was run: as §1

[17] = target: Gal(b1-4)GlcNAc(b1-2)[Gal(b1-4)GlcNAc(b1-4)]Man(a1-3)[Gal(b1-4)GlcNAc(b1-2)Man(a1-6)]Man(b1-4)GlcNAc(b1-4)GlcNAc
How it was run: as §1

[18] = target: Gal(b1-4)GlcNAc(b1-2)[Gal(b1-4)GlcNAc(b1-4)]Man(a1-3)[Gal(b1-4)GlcNAc(b1-2)[Gal(b1-4)GlcNAc(b1-6)]Man(a1-6)]Man(b1-4)GlcNAc(b1-4)GlcNAc
How it was run: as §1

B1: TAL6-4LysM (Trichoderma atroviride) (protein)
chain: AADSIPSISPTGIITPTPTQSGMVSNCNKFYDVHSNDGCSAIASSQHVDLSSLYKWNPAIKTDCSGLQASVYVCIGILTTSMSTTSKLPTTTSKPSTTSKPPTGITTPTPTQSGMVKNCNKFYDVHSGDGCSAIASSQKVNLSSFYLWNPAVKTDCSGLQASVFVCIGTLTTSMSTTTSKLPTTTSKPSTTSKPPTGIITPTPTQNGMVKNCNKFYDVHSGDGCSAIASSQKVNLSSFYLWNPAVKTDCSGLQASVFVCVGTATTTTAAGITTPTPTQSGMVSGCNKFYDVHAGDGCSAIASSQKIALSSLYKWNPAVKTDCSGLQASVYICIGVGNAAAARVTGALEQKLISEEDLNSAVDHHHHHH
**Q.** B1 was tested. Which “glycan array binding signal (z-score)” value [1] did it give?
**A.** -0.134

**Q.** And the “glycan array binding signal (z-score)” value [2]?
**A.** -0.334

**Q.** What about the “glycan array binding signal (z-score)” value [3] of the same binder?
**A.** 0.514

**Q.** And the “glycan array binding signal (z-score)” value [4]?
**A.** 0.444

**Q.** What about the “glycan array binding signal (z-score)” value [5] of the same binder?
**A.** 0.361

**Q.** What about the “glycan array binding signal (z-score)” value [6] of the same binder?
**A.** 0.99

**Q.** What about the “glycan array binding signal (z-score)” value [7] of the same binder?
**A.** 0.345

**Q.** And the “glycan array binding signal (z-score)” value [8]?
**A.** 0.685

**Q.** What about the “glycan array binding signal (z-score)” value [9] of the same binder?
**A.** -0.638

**Q.** What about the “glycan array binding signal (z-score)” value [10] of the same binder?
**A.** -0.903

**Q.** What about the “glycan array binding signal (z-score)” value [11] of the same binder?
**A.** 0.96

**Q.** What about the “glycan array binding signal (z-score)” value [12] of the same binder?
**A.** -0.532

**Q.** And the “glycan array binding signal (z-score)” value [13]?
**A.** 0.206

**Q.** And the “glycan array binding signal (z-score)” value [14]?
**A.** 1.1

**Q.** What about the “glycan array binding signal (z-score)” value [15] of the same binder?
**A.** 0.194

**Q.** And the “glycan array binding signal (z-score)” value [16]?
**A.** -0.256

**Q.** What about the “glycan array binding signal (z-score)” value [17] of the same binder?
**A.** 3.53

**Q.** What about the “glycan array binding signal (z-score)” value [18] of the same binder?
**A.** -1.01
